Measurements as given in the supplement of paper PMC8728848.
The list shows a part of the results.

Experiments:
Test in all cases: glycan array binding signal (z-score within array); higher = stronger binding
Settings in all cases: glycan notation: IUPAC condensed, linker removed
[1] = biological target: Gal3S(b1-3)[Fuc(a1-4)]GlcNAc
How it was run: (§1)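 Columns mapping to the same glycan were averaged after glycan names were converted to IUPAC-condensed notation. The data come from 3228 arrays in the Consortium for Functional Glycomics database, limited to those with an available protein sequence. Binding is reported as a within-array Z-score averaged across arrays of one protein sequence and across linkers.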

[2] = biological target: Gal3S(b1-4)Glc
How it was run: as §1

[3] = biological target: Gal3S(b1-4)Glc6S
How it was run: as §1

[4] = biological target: Gal3S(b1-4)GlcNAc
How it was run: as §1

[5] = biological target: Gal3S(b1-4)[Fuc(a1-3)]Glc6S
How it was run: as §1

[6] = biological target: Gal3S(b1-4)[Fuc(a1-3)]GlcNAc
How it was run: as §1

[7] = biological target: Gal3S(b1-4)[Fuc(a1-3)]GlcNAc6S
How it was run: as §1

[8] = biological target: Gal3S4S(b1-4)GlcNAc
How it was run: as §1

[9] = biological target: Gal3S6S(b1-4)GlcNAc
How it was run: as §1

[10] = biological target: Gal3S6S(b1-4)GlcNAc6S
How it was run: as §1

[11] = biological target: Gal4S(b1-4)GlcNAc
How it was run: as §1

[12] = biological target: Gal4S6S(b1-4)GlcNAc
How it was run: as §1

[13] = biological target: Gal6P(b1-4)GlcNAc
How it was run: as §1

[14] = biological target: Gal6S(b1-3)GlcNAc
How it was run: as §1

[15] = biological target: Gal6S(b1-3)GlcNAc6S
How it was run: as §1

[16] = biological target: Gal6S(b1-4)Glc
How it was run: as §1

[17] = biological target: Gal6S(b1-4)Glc6S
How it was run: as §1

[18] = biological target: Gal6S(b1-4)GlcNAc
How it was run: as §1

[19] = biological target: Gal6S(b1-4)GlcNAc6S
How it was run: as §1

[20] = biological target: GalNAc(a1-3)Gal
How it was run: as §1

[21] = biological target: GalNAc(a1-3)GalNAc
How it was run: as §1

[22] = biological target: GalNAc(a1-3)GalNAc(b1-3)Gal(a1-4)Gal(b1-4)Glc
How it was run: as §1

[23] = biological target: GalNAc(a1-3)GalNAc(b1-3)Gal(a1-4)Gal(b1-4)GlcNAc
How it was run: as §1

[24] = biological target: GalNAc(b1-3)Gal
How it was run: as §1

[25] = biological target: GalNAc(b1-3)Gal(a1-4)Gal(b1-4)GlcNAc
How it was run: as §1

[26] = biological target: GalNAc(b1-3)Gal(a1-4)Gal(b1-4)GlcNAc(b1-3)Gal(b1-4)Glc
How it was run: as §1

[27] = biological target: GalNAc(b1-3)Gal(a1-6)Gal(b1-4)Glc
How it was run: as §1

[28] = biological target: GalNAc(b1-3)GalNAc
How it was run: as §1

[29] = biological target: GalNAc(b1-3)GlcNAc
How it was run: as §1

[30] = biological target: GalNAc(b1-4)Gal(b1-4)Glc
How it was run: as §1

B1: SHCBP1-GST (Homo sapiens), Q8NEM2 (protein)
chain: MADGSLTGGGLEAAAMAPERMGWAVEQELASLEKGLFQDEDSCSDCSYRDKPGSSLQSFMPEGKTFFPEIFQTNQLLFYERFRAYQDYILADCKASEVQEFTAEFLEKVLEPSGWRAVWHTNVFKVLVEITDVDFAALKAVVRLAEPYLCDSQVSTFTMECMKELLDLKEHRLPLQELWVVFDDSGVFDQTALAIEHVRFFYQNIWRSWDEEEEDEYDYFVRCVEPRLRLHYDILEDRVPSGLIVDYHNLLSQCEESYRKFLNLRSSLSNCNSDSEQENISMVEGLKLYSEMEQLKQKLKLIENPLLRYVFGYQKNSNIQAKGVRSSGQKITHVVSSTMMAGLLRSLLTDRLCQEPGEEEREIQFHSDPLSAINACFEGDTVIVCPGHYVVHGTFSIADSIELEGYGLPDDIVIEKRGKGDTFVDCTGADIKISGIKFVQHDAVEGILIVHRGKTTLENCVLQCETTGVTVRTSAEFLMKNSDLYGAKGAGIEIYPGSQCTLSDNGIHHCKEGILIKDFLDEHYDIPKISMVNNIIHNNEGYGVVLVKPTIFSDLQENAEDGTEENKALKIQTSGEPDVAERVDLEELIECATGKMELCARTDPSEQVEGNCEIVNELIAASTQKGQIKKKRLSELGITQADDNLMSQEMFVGIVGNQFKWNGKGSFGTFLF
glycan array binding signal (z-score) [1]: 0.036
glycan array binding signal (z-score) [2]: 0.623
glycan array binding signal (z-score) [3]: 0.663
glycan array binding signal (z-score) [4]: 0.013
glycan array binding signal (z-score) [5]: 0.287
glycan array binding signal (z-score) [6]: -0.294
glycan array binding signal (z-score) [7]: -0.428
glycan array binding signal (z-score) [8]: -0.52
glycan array binding signal (z-score) [9]: 0.69
glycan array binding signal (z-score) [10]: 0.489
glycan array binding signal (z-score) [11]: -0.617
glycan array binding signal (z-score) [12]: 0.332
glycan array binding signal (z-score) [13]: -0.929
glycan array binding signal (z-score) [14]: -0.576
glycan array binding signal (z-score) [15]: -0.306
glycan array binding signal (z-score) [16]: -0.03
glycan array binding signal (z-score) [17]: -0.018
glycan array binding signal (z-score) [18]: -0.413
glycan array binding signal (z-score) [19]: -0.431
glycan array binding signal (z-score) [20]: 0.085
glycan array binding signal (z-score) [21]: -0.406
glycan array binding signal (z-score) [22]: -0.799
glycan array binding signal (z-score) [23]: -1.12
glycan array binding signal (z-score) [24]: -0.294
glycan array binding signal (z-score) [25]: 1.78
glycan array binding signal (z-score) [26]: -0.031
glycan array binding signal (z-score) [27]: -0.174
glycan array binding signal (z-score) [28]: -0.386
glycan array binding signal (z-score) [29]: -0.625
glycan array binding signal (z-score) [30]: -0.343
